Results: article doi:10.1101/2023.02.01.526621 (bioRxiv, 2023)
Results are given in words; binding and its absence hold for the method and conditions named. For part of these data: Binding can be weak; no strength is given. Sequences can lack the tags named with a protein. Each block holds one molecule with its values, some of them ahead of it.

Protein sequences, listed by entry. Tags and fused reporters are not part of them. Lines headed by an entry give the natural chain unless they say otherwise; changes in a name come on top.
UniProt O48946: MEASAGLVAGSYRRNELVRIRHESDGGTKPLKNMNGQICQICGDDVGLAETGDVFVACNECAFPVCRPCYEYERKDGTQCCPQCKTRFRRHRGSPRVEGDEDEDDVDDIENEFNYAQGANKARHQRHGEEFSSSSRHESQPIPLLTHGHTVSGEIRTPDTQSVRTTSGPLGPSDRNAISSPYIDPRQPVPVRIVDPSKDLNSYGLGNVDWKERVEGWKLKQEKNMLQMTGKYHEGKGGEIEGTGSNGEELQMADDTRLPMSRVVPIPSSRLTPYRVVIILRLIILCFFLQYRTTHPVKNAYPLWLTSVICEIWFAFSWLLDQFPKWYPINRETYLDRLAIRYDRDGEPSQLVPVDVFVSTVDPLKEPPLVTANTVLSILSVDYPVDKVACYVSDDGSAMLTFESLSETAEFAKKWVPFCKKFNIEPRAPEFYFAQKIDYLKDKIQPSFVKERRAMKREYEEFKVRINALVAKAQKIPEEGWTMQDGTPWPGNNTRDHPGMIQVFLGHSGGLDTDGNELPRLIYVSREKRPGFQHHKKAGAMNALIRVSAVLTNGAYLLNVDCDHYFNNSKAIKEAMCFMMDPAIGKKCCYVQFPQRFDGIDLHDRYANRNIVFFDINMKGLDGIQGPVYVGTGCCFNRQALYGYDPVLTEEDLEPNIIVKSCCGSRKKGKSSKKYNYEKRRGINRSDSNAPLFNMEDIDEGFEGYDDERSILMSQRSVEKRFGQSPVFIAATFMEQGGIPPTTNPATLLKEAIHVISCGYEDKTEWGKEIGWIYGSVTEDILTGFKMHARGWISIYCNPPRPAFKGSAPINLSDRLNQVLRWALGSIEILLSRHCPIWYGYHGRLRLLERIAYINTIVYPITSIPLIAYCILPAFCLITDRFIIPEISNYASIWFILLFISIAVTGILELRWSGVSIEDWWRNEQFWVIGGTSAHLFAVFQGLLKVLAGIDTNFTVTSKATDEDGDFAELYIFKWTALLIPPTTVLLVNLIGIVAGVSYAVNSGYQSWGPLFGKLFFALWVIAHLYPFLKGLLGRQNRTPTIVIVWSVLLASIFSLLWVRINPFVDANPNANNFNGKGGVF

Assays:
[1] = biological target: T1, GST-CESA3CD (catalytic domain of cellulose synthase CESA3 fused to GST) (Arabidopsis thaliana) (UniProt Q941L0); assay: pull-down
T1 sequence: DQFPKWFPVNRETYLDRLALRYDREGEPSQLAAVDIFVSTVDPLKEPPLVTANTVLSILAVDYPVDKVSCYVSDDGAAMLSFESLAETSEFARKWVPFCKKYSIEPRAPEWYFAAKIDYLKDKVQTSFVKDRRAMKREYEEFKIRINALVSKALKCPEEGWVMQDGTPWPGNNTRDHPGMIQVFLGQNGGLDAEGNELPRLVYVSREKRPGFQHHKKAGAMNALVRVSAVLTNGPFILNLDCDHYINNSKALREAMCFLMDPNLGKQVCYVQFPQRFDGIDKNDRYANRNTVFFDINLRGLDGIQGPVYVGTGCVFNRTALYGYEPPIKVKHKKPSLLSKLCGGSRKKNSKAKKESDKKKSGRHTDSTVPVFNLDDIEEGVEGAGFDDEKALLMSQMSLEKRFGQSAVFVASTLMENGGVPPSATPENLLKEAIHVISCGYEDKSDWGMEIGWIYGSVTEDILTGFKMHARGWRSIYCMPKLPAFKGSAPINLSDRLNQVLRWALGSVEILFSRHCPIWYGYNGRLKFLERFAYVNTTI

[2] = biological target: GST-CESA1CD (catalytic domain of cellulose synthase CESA1 fused to GST) (Arabidopsis thaliana) (UniProt O48946); assay: pull-down

binding [1]: no binding
Molecule: His-CPK32-N (N-terminal variable domain of CPK32) (Arabidopsis thaliana) (domain or fragment)

binding [2]: binds
B1: His-CPK32-K (kinase domain of CPK32) (domain or fragment, UniProt Q6NLQ6 63-321)
chain: YTLGRELGRGEFGVTYLCTDKETDDVFACKSILKKKLRTAVDIEDVRREVEIMRHMPEHPNVVTLKETYEDEHAVHLVMELCEGGELFDRIVARGHYTERAAAAVTKTIMEVVQVCHKHGVMHRDLKPENFLFGNKKETAPLKAIDFGLSVFFKPGERFNEIVGSPYYMAPEVLKRNYGPEVDIWSAGVILYILLCGVPPFWAETEQGVAQAIIRSVLDFRRDPWPKVSENAKDLIRKMLDPDQKRRLTAQQVLDHPWL

binding [2]: binds
B2: His-tagged full-length CALCIUM-DEPENDENT PROTEIN KINASE32 (His-CPK32) (enzyme, Arabidopsis thaliana, UniProt Q6NLQ6 1-538, looked up)
chain: MGNCCGTAGSLAQNDNKPKKGRKKQNPFSIDYGLHHGGGDGGGRPLKLIVLNDPTGREIESKYTLGRELGRGEFGVTYLCTDKETDDVFACKSILKKKLRTAVDIEDVRREVEIMRHMPEHPNVVTLKETYEDEHAVHLVMELCEGGELFDRIVARGHYTERAAAAVTKTIMEVVQVCHKHGVMHRDLKPENFLFGNKKETAPLKAIDFGLSVFFKPGERFNEIVGSPYYMAPEVLKRNYGPEVDIWSAGVILYILLCGVPPFWAETEQGVAQAIIRSVLDFRRDPWPKVSENAKDLIRKMLDPDQKRRLTAQQVLDHPWLQNAKTAPNVSLGETVRARLKQFTVMNKLKKRALRVIAEHLSDEEASGIREGFQIMDTSQRGKINIDELKIGLQKLGHAIPQDDLQILMDAGDIDRDGYLDCDEFIAISVHLRKMGNDEHLKKAFAFFDQNNNGYIEIEELREALSDELGTSEEVVDAIIRDVDTDKDGRISYEEFVTMMKTGTDWRKASRQYSRERFNSISLKLMQDASLQVNGDTR
